Laboratory results from paper PMC7205425.
No constants are given. Whether binding was seen depends on the method and setting. Binding seen in cells or lysates may run through a third protein. Some results given as binding are weak or reduced against the parent protein; the word gives no strength. For some assays here: Sequences can lack the tags named with a protein.

Amino acid sequences for entries named in this document (tags omitted).
UniProt P63092: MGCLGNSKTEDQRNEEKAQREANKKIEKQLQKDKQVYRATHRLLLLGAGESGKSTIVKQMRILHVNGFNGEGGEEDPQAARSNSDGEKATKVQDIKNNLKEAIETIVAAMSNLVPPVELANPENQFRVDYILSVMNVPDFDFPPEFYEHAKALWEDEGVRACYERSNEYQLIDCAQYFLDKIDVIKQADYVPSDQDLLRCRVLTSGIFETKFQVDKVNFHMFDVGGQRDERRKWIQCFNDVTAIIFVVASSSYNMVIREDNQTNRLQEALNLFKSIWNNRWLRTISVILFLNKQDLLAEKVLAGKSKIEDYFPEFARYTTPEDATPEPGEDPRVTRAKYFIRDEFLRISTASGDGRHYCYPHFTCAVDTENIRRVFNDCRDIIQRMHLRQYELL
UniProt Q61056: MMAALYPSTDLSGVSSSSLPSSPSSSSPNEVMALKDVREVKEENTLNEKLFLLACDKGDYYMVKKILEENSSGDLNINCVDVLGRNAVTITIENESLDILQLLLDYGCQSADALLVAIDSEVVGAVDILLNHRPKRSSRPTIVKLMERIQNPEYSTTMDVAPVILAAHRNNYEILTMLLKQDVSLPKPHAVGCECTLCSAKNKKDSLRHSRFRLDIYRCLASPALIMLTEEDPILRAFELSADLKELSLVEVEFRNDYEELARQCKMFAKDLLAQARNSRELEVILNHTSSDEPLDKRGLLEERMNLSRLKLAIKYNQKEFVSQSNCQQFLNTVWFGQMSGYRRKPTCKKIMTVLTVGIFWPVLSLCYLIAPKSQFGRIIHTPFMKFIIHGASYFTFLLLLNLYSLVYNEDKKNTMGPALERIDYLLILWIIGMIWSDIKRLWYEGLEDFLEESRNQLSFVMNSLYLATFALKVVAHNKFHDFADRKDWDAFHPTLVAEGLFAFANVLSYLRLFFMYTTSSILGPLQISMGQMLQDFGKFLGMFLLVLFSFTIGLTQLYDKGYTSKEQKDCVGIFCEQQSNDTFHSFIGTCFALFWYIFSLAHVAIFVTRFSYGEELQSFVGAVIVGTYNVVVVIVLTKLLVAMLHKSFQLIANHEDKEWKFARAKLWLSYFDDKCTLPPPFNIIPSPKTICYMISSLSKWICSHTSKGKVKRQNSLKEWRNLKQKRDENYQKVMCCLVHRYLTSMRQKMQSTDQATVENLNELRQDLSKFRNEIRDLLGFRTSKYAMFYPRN

Key:
[1] = target: T1, G protein subunit α 11 (Gα11), myc-tagged (mouse) (UniProt P21278); experiment: co-IP; HEK293T cells transiently cotransfected; native lysis solution (1% Triton X-100, 150 mM NaCl, 10 mM Tris-HCl pH 7.5, 1 mM EDTA, 1 mM EGTA, 0.5% Igepal, 10% sucrose), 4°C; Gα11 immunoprecipitated with anti-myc, GαS with anti-GαS; TRPC1 detected in the complexes with 1F1
T1 sequence: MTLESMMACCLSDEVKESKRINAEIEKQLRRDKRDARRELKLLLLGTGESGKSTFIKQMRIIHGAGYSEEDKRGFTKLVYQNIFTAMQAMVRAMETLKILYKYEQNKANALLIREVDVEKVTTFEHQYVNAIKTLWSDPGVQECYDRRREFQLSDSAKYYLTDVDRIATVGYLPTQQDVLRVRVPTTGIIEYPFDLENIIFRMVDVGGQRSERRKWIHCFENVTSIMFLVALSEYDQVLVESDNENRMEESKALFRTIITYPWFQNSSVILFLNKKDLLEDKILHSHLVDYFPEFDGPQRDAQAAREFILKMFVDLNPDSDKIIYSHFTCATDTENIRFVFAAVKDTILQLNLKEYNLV

GαS = GαS (UniProt P63092); experiment: as above

- binding [1]: binds
- binding (GαS): no binding
Substance: short form of TRPC1α (from UniProt Q61056 1-793)
